# Laboratory results taken from the supplement of paper PMC10849652.
# Chains of the proteins cited; added tags and fusions are not shown. Lines headed by an entry give the natural chain unless they say otherwise; changes in a name come on top.
# UniProt Q02218: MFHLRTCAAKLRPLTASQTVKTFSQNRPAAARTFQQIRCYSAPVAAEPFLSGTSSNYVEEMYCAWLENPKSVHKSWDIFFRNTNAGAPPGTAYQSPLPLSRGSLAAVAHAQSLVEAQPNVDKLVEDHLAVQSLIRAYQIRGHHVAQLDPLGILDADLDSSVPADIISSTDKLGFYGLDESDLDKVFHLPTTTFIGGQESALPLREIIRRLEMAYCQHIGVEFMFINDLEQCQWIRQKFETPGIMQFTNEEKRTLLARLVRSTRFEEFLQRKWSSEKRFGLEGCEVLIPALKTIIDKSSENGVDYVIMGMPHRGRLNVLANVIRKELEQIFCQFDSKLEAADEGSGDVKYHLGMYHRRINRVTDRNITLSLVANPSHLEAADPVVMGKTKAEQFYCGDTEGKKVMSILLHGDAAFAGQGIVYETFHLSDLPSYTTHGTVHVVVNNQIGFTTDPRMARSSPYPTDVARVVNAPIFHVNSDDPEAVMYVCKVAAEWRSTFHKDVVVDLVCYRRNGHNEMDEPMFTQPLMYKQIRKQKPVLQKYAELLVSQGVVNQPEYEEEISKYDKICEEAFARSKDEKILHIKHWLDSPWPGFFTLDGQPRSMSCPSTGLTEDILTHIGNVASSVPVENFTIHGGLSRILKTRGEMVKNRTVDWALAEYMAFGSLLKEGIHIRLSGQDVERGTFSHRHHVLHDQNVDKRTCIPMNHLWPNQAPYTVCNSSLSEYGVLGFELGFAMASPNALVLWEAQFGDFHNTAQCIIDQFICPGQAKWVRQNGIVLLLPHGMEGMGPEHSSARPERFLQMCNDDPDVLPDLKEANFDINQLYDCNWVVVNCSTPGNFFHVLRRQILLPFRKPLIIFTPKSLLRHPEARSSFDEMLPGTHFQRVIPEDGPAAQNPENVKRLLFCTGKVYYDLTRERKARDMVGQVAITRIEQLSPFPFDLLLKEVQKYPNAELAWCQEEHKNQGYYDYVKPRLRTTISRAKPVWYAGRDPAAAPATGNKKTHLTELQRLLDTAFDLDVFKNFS
# UniProt Q96CB9: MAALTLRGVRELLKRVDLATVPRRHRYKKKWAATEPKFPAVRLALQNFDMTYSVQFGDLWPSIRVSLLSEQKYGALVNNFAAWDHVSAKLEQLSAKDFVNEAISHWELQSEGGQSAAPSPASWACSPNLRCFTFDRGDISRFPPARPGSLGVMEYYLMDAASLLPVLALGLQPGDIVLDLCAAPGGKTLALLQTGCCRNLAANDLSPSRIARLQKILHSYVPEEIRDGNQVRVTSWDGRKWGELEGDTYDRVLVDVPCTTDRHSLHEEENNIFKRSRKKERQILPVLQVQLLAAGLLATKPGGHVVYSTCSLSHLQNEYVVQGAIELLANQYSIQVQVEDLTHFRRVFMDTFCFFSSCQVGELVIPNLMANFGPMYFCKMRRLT
# UniProt Q14980: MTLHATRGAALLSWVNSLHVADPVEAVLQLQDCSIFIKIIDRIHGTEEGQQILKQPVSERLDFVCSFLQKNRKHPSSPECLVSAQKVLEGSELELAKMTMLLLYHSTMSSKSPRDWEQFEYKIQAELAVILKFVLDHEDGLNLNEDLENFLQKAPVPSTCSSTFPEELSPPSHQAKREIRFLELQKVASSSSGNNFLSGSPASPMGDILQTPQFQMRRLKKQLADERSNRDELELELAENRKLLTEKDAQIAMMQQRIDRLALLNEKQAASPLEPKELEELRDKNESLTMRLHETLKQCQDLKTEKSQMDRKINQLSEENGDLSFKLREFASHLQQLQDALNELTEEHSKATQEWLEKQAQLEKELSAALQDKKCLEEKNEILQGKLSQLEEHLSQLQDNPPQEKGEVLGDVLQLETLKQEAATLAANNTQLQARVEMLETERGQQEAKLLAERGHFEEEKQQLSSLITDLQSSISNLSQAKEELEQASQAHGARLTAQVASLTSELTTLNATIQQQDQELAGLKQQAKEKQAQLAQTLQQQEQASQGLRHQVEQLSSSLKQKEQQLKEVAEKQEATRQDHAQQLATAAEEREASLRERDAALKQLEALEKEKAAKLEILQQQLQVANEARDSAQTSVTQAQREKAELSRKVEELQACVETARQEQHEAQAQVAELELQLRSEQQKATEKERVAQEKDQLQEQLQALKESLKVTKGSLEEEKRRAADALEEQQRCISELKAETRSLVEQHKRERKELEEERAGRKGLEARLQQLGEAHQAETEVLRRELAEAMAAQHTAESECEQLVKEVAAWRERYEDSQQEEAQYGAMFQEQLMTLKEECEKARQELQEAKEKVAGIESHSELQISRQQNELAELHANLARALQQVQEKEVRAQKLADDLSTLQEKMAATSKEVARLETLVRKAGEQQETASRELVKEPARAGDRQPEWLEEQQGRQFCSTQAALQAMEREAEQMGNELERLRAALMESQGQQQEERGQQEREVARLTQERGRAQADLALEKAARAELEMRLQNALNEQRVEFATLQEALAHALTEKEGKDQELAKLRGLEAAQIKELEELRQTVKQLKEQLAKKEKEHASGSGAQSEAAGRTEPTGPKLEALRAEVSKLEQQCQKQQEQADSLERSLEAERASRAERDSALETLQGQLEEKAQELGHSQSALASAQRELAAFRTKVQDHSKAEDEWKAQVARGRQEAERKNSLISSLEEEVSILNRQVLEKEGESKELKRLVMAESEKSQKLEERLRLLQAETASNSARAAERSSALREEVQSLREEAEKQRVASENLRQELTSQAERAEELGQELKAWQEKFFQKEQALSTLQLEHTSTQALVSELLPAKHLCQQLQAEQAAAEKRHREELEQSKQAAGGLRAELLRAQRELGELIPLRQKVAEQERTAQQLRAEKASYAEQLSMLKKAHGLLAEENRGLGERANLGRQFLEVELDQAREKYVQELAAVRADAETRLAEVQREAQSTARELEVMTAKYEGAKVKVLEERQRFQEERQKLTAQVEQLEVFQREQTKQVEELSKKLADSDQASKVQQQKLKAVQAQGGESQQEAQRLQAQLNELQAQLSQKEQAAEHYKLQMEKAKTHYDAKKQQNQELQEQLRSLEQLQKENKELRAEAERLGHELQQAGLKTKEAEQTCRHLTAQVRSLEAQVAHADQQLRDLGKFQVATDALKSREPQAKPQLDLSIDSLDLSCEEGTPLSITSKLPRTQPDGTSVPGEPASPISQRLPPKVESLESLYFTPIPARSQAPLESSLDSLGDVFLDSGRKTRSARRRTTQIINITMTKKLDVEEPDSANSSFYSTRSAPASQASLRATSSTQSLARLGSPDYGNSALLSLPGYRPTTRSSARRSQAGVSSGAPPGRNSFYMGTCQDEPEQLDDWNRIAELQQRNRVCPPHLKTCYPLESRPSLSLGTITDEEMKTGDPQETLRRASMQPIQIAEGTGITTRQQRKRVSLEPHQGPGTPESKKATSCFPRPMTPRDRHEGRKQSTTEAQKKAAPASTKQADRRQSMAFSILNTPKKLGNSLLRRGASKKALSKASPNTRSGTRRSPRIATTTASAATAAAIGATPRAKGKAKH
# UniProt Q01804: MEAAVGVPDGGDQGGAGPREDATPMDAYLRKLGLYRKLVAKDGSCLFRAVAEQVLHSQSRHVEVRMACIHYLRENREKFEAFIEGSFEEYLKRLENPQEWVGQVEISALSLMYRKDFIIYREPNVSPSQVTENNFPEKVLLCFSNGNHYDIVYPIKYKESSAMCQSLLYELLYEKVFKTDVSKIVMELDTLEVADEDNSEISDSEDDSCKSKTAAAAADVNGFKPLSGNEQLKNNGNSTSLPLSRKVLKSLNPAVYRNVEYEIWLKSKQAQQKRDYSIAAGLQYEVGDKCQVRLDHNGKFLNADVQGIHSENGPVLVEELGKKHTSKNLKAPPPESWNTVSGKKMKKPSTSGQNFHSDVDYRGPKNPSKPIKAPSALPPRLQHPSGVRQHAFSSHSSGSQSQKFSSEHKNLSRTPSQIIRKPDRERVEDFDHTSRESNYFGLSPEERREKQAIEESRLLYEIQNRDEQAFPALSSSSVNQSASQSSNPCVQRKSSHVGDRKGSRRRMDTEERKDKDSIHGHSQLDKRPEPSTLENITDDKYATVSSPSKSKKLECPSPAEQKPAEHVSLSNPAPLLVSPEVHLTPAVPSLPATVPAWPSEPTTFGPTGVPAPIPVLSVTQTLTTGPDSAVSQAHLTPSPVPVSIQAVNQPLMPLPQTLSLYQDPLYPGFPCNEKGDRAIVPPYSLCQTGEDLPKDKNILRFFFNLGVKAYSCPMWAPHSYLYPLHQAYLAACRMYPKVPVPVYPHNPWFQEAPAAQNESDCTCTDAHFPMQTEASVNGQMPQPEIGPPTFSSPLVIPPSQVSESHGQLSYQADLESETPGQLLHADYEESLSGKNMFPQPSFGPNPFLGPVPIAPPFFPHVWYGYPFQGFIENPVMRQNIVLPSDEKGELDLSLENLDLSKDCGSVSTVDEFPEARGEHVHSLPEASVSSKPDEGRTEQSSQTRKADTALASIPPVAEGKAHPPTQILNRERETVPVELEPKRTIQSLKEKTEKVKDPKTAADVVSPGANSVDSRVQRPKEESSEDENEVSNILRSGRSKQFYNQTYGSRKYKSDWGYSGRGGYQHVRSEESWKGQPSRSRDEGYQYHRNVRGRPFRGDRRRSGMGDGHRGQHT
# UniProt Q8N573: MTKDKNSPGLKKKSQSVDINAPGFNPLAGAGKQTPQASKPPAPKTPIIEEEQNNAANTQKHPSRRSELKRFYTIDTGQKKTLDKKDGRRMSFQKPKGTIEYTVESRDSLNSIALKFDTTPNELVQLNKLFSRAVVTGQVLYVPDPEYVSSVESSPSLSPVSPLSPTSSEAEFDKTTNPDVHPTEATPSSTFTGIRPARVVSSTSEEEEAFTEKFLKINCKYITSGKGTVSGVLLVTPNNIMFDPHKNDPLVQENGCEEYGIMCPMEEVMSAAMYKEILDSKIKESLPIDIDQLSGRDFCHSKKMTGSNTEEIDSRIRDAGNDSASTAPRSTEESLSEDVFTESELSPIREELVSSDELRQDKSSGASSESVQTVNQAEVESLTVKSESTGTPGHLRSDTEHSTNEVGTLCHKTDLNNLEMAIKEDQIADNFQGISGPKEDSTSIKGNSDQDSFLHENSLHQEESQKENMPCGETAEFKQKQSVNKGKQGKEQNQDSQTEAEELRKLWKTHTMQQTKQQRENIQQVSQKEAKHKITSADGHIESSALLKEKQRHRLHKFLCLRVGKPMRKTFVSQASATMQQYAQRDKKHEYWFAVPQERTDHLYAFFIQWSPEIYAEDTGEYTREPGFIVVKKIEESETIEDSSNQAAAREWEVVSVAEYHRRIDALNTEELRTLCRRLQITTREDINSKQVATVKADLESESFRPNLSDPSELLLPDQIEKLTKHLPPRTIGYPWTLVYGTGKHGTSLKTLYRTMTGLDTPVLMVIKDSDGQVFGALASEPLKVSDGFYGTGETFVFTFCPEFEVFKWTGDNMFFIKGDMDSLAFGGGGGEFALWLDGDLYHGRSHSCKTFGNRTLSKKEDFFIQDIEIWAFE
# UniProt P00480: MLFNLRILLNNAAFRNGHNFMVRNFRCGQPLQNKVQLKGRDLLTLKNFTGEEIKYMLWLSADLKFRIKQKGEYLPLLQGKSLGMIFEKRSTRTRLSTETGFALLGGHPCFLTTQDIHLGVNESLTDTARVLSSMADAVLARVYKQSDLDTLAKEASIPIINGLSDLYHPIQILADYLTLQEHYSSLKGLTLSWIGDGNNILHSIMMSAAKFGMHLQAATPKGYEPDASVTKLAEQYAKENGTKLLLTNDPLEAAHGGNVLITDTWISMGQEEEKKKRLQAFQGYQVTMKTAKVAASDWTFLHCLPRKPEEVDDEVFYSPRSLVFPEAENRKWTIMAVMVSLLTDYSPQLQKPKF
# UniProt Q96SU4: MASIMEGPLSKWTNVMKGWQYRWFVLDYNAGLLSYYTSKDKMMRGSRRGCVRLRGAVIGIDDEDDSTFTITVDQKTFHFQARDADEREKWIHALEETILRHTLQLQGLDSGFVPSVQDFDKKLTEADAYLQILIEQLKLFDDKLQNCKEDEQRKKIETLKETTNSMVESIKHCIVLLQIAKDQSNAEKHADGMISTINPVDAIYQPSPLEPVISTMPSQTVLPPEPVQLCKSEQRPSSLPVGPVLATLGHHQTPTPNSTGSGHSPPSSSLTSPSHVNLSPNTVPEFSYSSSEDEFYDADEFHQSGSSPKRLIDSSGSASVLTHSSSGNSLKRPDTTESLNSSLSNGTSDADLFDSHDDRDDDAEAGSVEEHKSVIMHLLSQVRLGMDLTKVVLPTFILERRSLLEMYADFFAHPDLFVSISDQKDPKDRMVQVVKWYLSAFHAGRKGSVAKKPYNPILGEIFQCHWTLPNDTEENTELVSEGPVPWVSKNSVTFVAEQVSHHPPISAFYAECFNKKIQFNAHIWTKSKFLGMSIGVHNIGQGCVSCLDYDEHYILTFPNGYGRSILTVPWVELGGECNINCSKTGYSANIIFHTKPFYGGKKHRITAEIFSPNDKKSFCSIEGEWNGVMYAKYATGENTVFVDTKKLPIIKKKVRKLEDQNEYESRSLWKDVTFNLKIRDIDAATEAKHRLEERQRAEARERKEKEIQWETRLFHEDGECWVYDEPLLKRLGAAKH
# The other results are listed elsewhere or left out.
# How the values were obtained:
# Test in all cases: log2 fold change, soluble protein after heating vs DMSO (PISA); higher = thermal stabilisation; K562 cells, 10 uM, 30 min; active = over 0.2 and 3.5 SD of the protein, either way, in both replicates (recomputed)
# bafetinib = compound: Cc1ccc(NC(=O)c2ccc(CN3CC[C@H](N(C)C)C3)c(C(F)(F)F)c2)cc1Nc1nccc(-c2cncnc2)n1 [bafetinib]
# In short: (§1)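 K562 cells at 2×10^6 cells/mL were given 10 μM compound for 30 min. Aliquots then went through 3 min of heating across 48°C-58°C, were pooled, and were extracted in PBS with 0.5% NP-40 at 4°C, and the supernatant after 21,000xg for 90 min was quantified by TMTpro 16plex LC-MS/MS with channel sums equalised. Thermal stability relative to control samples, from duplicates, is given as log2 fold change.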
# [1] = compound: Cc1cccc(CC(=O)N2CCc3c2ccc(-c2cn(C)c4ncnc(N)c24)c3F)n1
# In short: as §1
# nilotinib = compound: Cc1cn(-c2cc(NC(=O)c3ccc(C)c(Nc4nccc(-c5cccnc5)n4)c3)cc(C(F)(F)F)c2)cn1 [nilotinib]
# In short: as §1
# [2] = compound: Cc1nc(Nc2n[nH]c3c2CN(C(=O)N[C@H](CN(C)C)c2ccccc2)C3(C)C)c2sccc2n1
# In short: as §1
# dasatinib = compound: Cc1nc(Nc2ncc(C(=O)Nc3c(C)cccc3Cl)s2)cc(N2CCN(CCO)CC2)n1 [dasatinib]
# In short: as §1
# [3] = compound: Cc1ncc(-c2ccnc(Nc3ccc(S(C)(=O)=O)cc3)n2)n1C(C)C
# In short: as §1
# [4] = compound: Cn1cc(-c2ccc3c(c2)CCN3C(=O)Cc2cccc(C(F)(F)F)c2)c2c(N)ncnc21
# In short: as §1
# [5] = compound: Cn1cc(-c2ccc3nnc(C(F)(F)c4ccc5ncccc5c4)n3n2)cn1
# In short: as §1
# tipifarnib = compound: Cn1cncc1[C@@](N)(c1ccc(Cl)cc1)c1ccc2c(c1)c(-c1cccc(Cl)c1)cc(=O)n2C [tipifarnib]
# In short: as §1
# mubritinib = compound: FC(F)(F)c1ccc(/C=C/c2nc(COc3ccc(CCCCn4ccnn4)cc3)co2)cc1 [mubritinib]
# In short: as §1
# [6] = compound: NC(=O)Nc1cc(-c2cccc(F)c2)sc1C(=O)N[C@H]1CCCNC1
# In short: as §1
# [7] = compound: NC(=O)c1cnc(N[C@@H]2CCCC[C@@H]2N)nc1Nc1cccc(-n2nccn2)c1
# In short: as §1
# [8] = compound: NC1(c2ccc(-c3nc4ccn5c(=O)[nH]nc5c4cc3-c3ccccc3)cc2)CCC1
# In short: as §1
# [9] = compound: NCC(=O)Nc1ccc(-n2nc(C(F)(F)F)cc2-c2ccc3c(ccc4ccccc43)c2)cc1
# In short: as §1
# entinostat = compound: Nc1ccccc1NC(=O)c1ccc(CNC(=O)OCc2cccnc2)cc1 [entinostat]
# In short: as §1
# vorinostat = compound: O=C(CCCCCCC(=O)Nc1ccccc1)NO [vorinostat]
# In short: as §1
# citarinostat = compound: O=C(CCCCCCNC(=O)c1cnc(N(c2ccccc2)c2ccccc2Cl)nc1)NO [citarinostat]
# In short: as §1
# silmitasertib = compound: O=C(O)c1ccc2c(c1)nc(Nc1cccc(Cl)c1)c1ccncc12 [silmitasertib]
# In short: as §1
# [10] = compound: O=C1NC(=O)C(c2cnc3ccccn23)=C1c1cn2c3c(cc(F)cc13)CN(C(=O)N1CCCCC1)CC2
# In short: as §1
# [11] = compound: c1cc(OCCN2CCCCC2)cc(-c2n[nH]c3ccc(-c4nnc[nH]4)cc23)c1
# In short: as §1
Target,log2 fold change (bafetinib),log2 fold change [1],log2 fold change (nilotinib),log2 fold change [2],log2 fold change (dasatinib),log2 fold change [3],log2 fold change [4],log2 fold change [5],log2 fold change (tipifarnib),log2 fold change (mubritinib),log2 fold change [6],log2 fold change [7],log2 fold change [8],log2 fold change [9],log2 fold change (entinostat),log2 fold change (vorinostat),log2 fold change (citarinostat),log2 fold change (silmitasertib),log2 fold change [10],log2 fold change [11]
OS9 (UniProt Q13438),inactive: -0.032,inactive: 0.012,inactive: -0.041,inactive: 0.025,inactive: 0.03,inactive: -0.029,inactive: -0.014,inactive: -0.009,inactive: 0.062,inactive: -0.042,inactive: 0.007,inactive: -0.001,inactive: 0.006,inactive: -0.017,inactive: 0.002,inactive: 0.012,inactive: -0.02,inactive: 0.013,inactive: 0.045,inactive: -0.075
OGDH (UniProt Q02218),inactive: 0.177,inactive: 0.171,inactive: -0.03,inactive: 0.161,inactive: 0.002,inactive: -0.025,inactive: 0.038,inactive: 0.078,inactive: 0.056,inactive: 0.191,inactive: 0.039,inactive: 0.025,inactive: -0.027,inactive: 0.028,inactive: 0,inactive: 0.058,inactive: -0.022,inactive: -0.063,inactive: 0.029,inactive: -0.032
NSUN4 (UniProt Q96CB9),inactive: 0.107,inactive: 0.026,inactive: 0.078,inactive: -0.034,inactive: -0.042,inactive: 0.046,inactive: -0.055,inactive: -0.052,inactive: 0.019,inactive: -0.016,inactive: -0.037,inactive: 0.032,inactive: 0.092,inactive: 0.006,inactive: -0.002,inactive: -0.016,inactive: -0.057,inactive: -0.029,inactive: 0.126,inactive: -0.068
NUDT9 (UniProt Q9BW91),inactive: 0.006,inactive: -0.031,inactive: 0.018,inactive: -0.016,inactive: -0.047,inactive: 0.031,inactive: -0.012,inactive: -0.014,inactive: -0.014,inactive: 0.017,inactive: 0.014,inactive: -0.01,inactive: -0.124,inactive: -0.025,inactive: 0.014,inactive: -0.002,inactive: 0.034,inactive: 0.005,inactive: -0.033,inactive: 0.037
NUMA1 (UniProt Q14980),inactive: 0.121,inactive: 0.005,inactive: 0.031,inactive: -0.22,inactive: 0.019,inactive: -0.013,inactive: -0.194,inactive: -0.031,inactive: 0.086,inactive: -0.043,inactive: -0.117,inactive: -0.091,inactive: -0.139,inactive: 0.101,inactive: 0.072,inactive: 0.002,inactive: 0.01,inactive: 0.005,inactive: 0.007,inactive: -0.12
OXCT1 (UniProt P55809),inactive: -0.028,inactive: 0.011,inactive: 0.113,inactive: -0.013,inactive: -0.007,inactive: -0.022,inactive: 0.028,inactive: 0.015,inactive: 0.029,inactive: 0.029,inactive: -0.006,inactive: -0.014,inactive: -0.015,inactive: -0.008,inactive: -0.004,inactive: -0.009,inactive: 0.011,inactive: -0.018,inactive: -0.041,inactive: -0.012
OTUD4 (UniProt Q01804),inactive: 0.069,inactive: -0.016,inactive: 0.037,inactive: -0.039,inactive: 0.046,inactive: -0.077,inactive: -0.082,inactive: -0.09,inactive: 0.064,inactive: -0.024,inactive: 0.006,inactive: 0.026,inactive: 0.071,inactive: 0.001,inactive: -0.051,inactive: 0.016,inactive: -0.016,inactive: 0.02,inactive: 0.033,inactive: -0.061
NT5DC1 (UniProt Q5TFE4),inactive: 0.043,inactive: 0.004,inactive: 0.099,inactive: 0.069,inactive: 0.033,inactive: -0.016,inactive: 0.045,inactive: 0.069,inactive: -0.043,inactive: 0.001,inactive: -0.057,inactive: -0.052,inactive: -0.003,inactive: -0.012,inactive: -0.037,inactive: -0.013,inactive: 0.003,inactive: 0.025,inactive: -0.038,active: 0.236
NUP54 (UniProt Q7Z3B4),inactive: 0.023,inactive: 0.036,inactive: -0.008,inactive: -0.016,inactive: -0.167,inactive: -0.03,inactive: 0.087,inactive: 0.005,inactive: -0.072,inactive: 0.1,inactive: -0.053,inactive: -0.014,inactive: -0.085,inactive: -0.052,inactive: 0.075,inactive: 0.047,inactive: 0.076,inactive: 0.018,inactive: -0.074,inactive: -0.043
NUB1 (UniProt Q9Y5A7),inactive: 0.047,inactive: 0.014,inactive: -0.327,inactive: -0.088,inactive: -0.041,inactive: -0.054,inactive: -0.028,inactive: -0.01,inactive: -0.072,inactive: -0.028,inactive: -0.015,inactive: -0.028,inactive: -0.161,inactive: -0.05,inactive: 0.041,inactive: 0.059,inactive: 0.162,inactive: 0.163,inactive: 0.008,inactive: -0.019
NSUN2 (UniProt Q08J23),inactive: -0.059,inactive: 0.056,inactive: -0.038,inactive: -0.271,inactive: -0.146,inactive: -0.222,inactive: -0.034,inactive: -0.053,inactive: -0.033,inactive: -0.045,inactive: 0.029,inactive: -0.246,inactive: -0.106,inactive: -0.027,inactive: 0.01,inactive: 0.137,inactive: 0.013,inactive: 0.046,inactive: -0.026,inactive: -0.075
OXR1 (UniProt Q8N573),inactive: -0.098,inactive: -0.063,inactive: 0.079,inactive: -0.004,inactive: -0.034,inactive: -0.023,inactive: 0.081,inactive: 0.013,inactive: -0.038,inactive: 0.05,inactive: 0.03,inactive: 0,inactive: -0.157,inactive: -0.008,inactive: 0.023,inactive: -0.029,inactive: 0.062,inactive: -0.009,inactive: -0.044,inactive: -0.001
NUDCD1 (UniProt Q96RS6),inactive: -0.05,inactive: 0.049,inactive: -0.023,inactive: -0.031,inactive: -0.054,inactive: -0.005,inactive: 0.018,inactive: -0.011,inactive: -0.042,inactive: 0.021,inactive: 0.018,inactive: -0.043,inactive: -0.131,inactive: -0.022,inactive: 0.017,inactive: 0.043,inactive: 0.058,inactive: -0.008,inactive: -0.028,inactive: -0.015
OTC (UniProt P00480),inactive: -0.053,inactive: -0.158,inactive: -0.313,inactive: 0.106,inactive: 0.107,inactive: -0.054,inactive: -0.166,inactive: 0.085,inactive: 0.049,inactive: -0.076,inactive: -0.101,inactive: -0.373,inactive: -0.555,inactive: -0.417,inactive: -0.069,inactive: -0.114,inactive: -0.127,inactive: 0.204,inactive: -0.08,inactive: -0.246
OSTM1 (UniProt Q86WC4),inactive: -0.208,inactive: 0.091,inactive: 0.044,inactive: 0.017,inactive: -0.086,inactive: -0.068,inactive: 0.076,inactive: 0.029,inactive: 0.008,inactive: -0.048,inactive: -0.035,inactive: -0.029,active: -0.319,inactive: 0.003,inactive: 0.006,inactive: 0.072,inactive: 0.064,inactive: 0.034,inactive: -0.037,inactive: -0.037
OSBPL9 (UniProt Q96SU4),inactive: 0.149,inactive: 0.033,inactive: 0.156,inactive: -0.191,inactive: 0.403,inactive: -0.171,inactive: 0.023,inactive: -0.112,inactive: -0.282,inactive: 0.075,inactive: 0.004,inactive: -0.19,inactive: -0.147,inactive: -0.015,inactive: 0.047,inactive: 0.073,inactive: 0.02,inactive: 0.147,inactive: 0.231,inactive: -0.279
